Measurements as given in PubChem BioAssay AID2685 (National Center for Advancing Translational Sciences (NCATS), 2010).
Some of the results follow. These are further read-outs of the screen, such as a control signal, another cell line or another target. No call is given for them. Most of these compounds were active or inconclusive in the main read-out, so they are no random draw. Words in brackets tell the shape of the fitted curve; partial curves, single points and poor fits give uncertain potencies.

Assay: qHTS Assay for Lipid Storage Modulators in Drosophila S3 Cells;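 on cell number change: cells counted by Cell Tracker Red CMTPX staining in the red channel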
Conditions: BODIPY lipid droplet fluorescence, 18-24 h; for cell number change: measured here: cell count max response, cells fed with added oleic acid
Procedure, shortened: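 Laser-scanning cytometry quantifies lipid droplet accumulation (500–530 nm total intensity; droplet/cell object ratio) in oleic acid-fed (400 uM added) Drosophila S3 cells treated with a concentration series. 20 uM Triacsin C defined 100% inhibition.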

[1] = measured here: lipid fluorescence (Fed channel) AC50, cells fed with added oleic acid
[2] = measured here: cell number channel AC50, cells fed with added oleic acid

SMILES	cell number change	AC50 [1]	AC50 [2]
COc1ccc(CNC(=O)C(NS(=O)(=O)c2ccc3c(c2)CCCN3C(C)=O)C(C)C)cc1 (stereo unspecified)	7.09%	0.13 µM [rising, full curve, poor fit]	
CCc1nnc(NC(=O)CSc2nnc(COc3ccccc3)n2Cc2ccccc2)s1		29.1 µM [rising, single point]	6.51 µM [rising, single point]
O=C(N/N=C\c1ccc(Oc2ccccc2)cc1)c1csnn1	39.1%	29.1 µM [rising, partial curve, poor fit]	18.4 µM [rising, partial curve, poor fit]
O=C(NC1CCCC1)C1c2ccccc2C(=O)N1CCCN1CCOCC1 (stereo unspecified)	31.1%	0.103 µM [falling, full curve, poor fit]	10.3 µM [rising, partial curve]
CCOC(=O)Cn1nnc(-c2cc(OC)c(OC)c(OC)c2)n1	40.7%		
CCOc1cc(C)c(C(C)C)cc1S(=O)(=O)n1ccc(C)n1	13.5%	0.82 µM [rising, single point]	
CC(C#N)Sc1ccc(S(=O)(=O)N2CCCCC2)cn1 (stereo unspecified)	13.5%	0.00461 µM [falling, full curve, poor fit]	
O=C(CSc1ccc2ccccc2c1)NCCc1ccc(O)c(O)c1	-3.11%	29.1 µM [falling, partial curve, poor fit]	
CCOC(=O)C1CCCN(c2c(N3CCN(c4ccccn4)CC3)c(=O)c2=O)C1 (stereo unspecified)			0.517 µM [rising, full curve]
CSc1ncnc2c1ccn2CC(=O)Nc1ccc(C)c(C)c1	-8.66%	20.6 µM [falling, partial curve, poor fit]	0.92 µM [falling, full curve]
O=C(NNC(=O)c1ccccc1F)c1ccco1	-2.63%		
CCN1CCCC1CNC(=O)c1ccc2c(c1)NC(=O)/C(=C\c1ccc(C)cc1)S2 (stereo unspecified)	-23.5%	2.06 µM [falling, single point]	
Cc1cc(Sc2nc(N(C)C)nc(N(C)C)n2)nc(Cl)n1	2.31%		
COc1ccc(S(=O)(=O)NC(C)C(=O)NCc2ccc3c(c2)OCO3)cc1OC (stereo unspecified)	12%	29.1 µM [rising, single point]	
O=C(NCc1cccs1)c1nc(-c2cccs2)no1	-6.1%		0.146 µM [falling, full curve, poor fit]
CCOC(=O)C1=C(C)N(CCCCCC(=O)O)C(=O)NC1c1ccccc1OC(=O)c1cccs1 (stereo unspecified)	-8.49%	32.6 µM [falling, partial curve, poor fit]	

2 records drawn at random from those above, as already listed:
SMILES	cell number change	AC50 [1]	AC50 [2]
O=C(NC1CCCC1)C1c2ccccc2C(=O)N1CCCN1CCOCC1 (stereo unspecified)	31.1%	0.103 µM [falling, full curve, poor fit]	10.3 µM [rising, partial curve]
CCOC(=O)C1CCCN(c2c(N3CCN(c4ccccn4)CC3)c(=O)c2=O)C1 (stereo unspecified)			0.517 µM [rising, full curve]
